The list shows a part of the results.
Key:
Test in all cases: log2 fold change, soluble protein after heating vs DMSO (PISA); higher = thermal stabilisation; K562 lysate, 10 uM; active = over 0.2 and 3.5 SD of the protein, either way, in both replicates (recomputed)
[1] = compound: C1=CC=C(C=C1)[C@H](COC2=CC3=C(C=C2)NC(=O)N3)NC(=O)C4=CC=CN(C4=O)CC5=CC(=C(C=C5)F)F
Procedure, shortened: (§1)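 Values give the log-two fold change in thermal stability against solvent controls, from duplicates. Crude K562 extract at 1 mg/mL protein, made by dounce homogenisation in PBS pH 7.4 with 1 mM MgCl2, was treated with 10 μM compound for 30 min. After 3 min heating across 48°C-58°C, aliquots were pooled, adjusted to 0.5% NP-40 at 4°C and centrifuged at 21,000xg for 90 min. The supernatant was measured by TMTpro 16plex LC-MS/MS with channel sums equalised.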

By UniProt entry, the sequences of proteins in these tests, tags left out. Where a name states a change or a piece, a line headed by the entry shows the natural chain unless it says otherwise.
UniProt P20336: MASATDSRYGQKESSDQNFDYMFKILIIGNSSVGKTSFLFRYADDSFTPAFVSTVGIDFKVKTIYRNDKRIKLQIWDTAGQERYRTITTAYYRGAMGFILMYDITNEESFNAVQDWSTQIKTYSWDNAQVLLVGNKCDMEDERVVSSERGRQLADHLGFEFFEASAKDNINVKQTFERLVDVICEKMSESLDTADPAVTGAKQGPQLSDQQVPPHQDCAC
UniProt P46060: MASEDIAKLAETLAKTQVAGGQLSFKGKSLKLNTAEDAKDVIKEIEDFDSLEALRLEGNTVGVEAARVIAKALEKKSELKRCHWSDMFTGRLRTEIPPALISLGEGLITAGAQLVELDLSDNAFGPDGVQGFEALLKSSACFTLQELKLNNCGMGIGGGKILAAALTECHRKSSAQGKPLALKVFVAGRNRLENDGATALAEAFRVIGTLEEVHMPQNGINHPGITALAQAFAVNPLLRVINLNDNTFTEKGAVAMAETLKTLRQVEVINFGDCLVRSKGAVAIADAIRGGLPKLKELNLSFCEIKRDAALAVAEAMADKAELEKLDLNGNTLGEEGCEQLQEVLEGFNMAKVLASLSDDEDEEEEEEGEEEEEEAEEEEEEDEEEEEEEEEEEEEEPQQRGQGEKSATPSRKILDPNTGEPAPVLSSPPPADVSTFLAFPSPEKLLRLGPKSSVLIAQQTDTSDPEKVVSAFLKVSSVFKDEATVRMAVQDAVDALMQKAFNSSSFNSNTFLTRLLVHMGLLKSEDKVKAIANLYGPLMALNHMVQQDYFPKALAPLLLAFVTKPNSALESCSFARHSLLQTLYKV
UniProt O43502: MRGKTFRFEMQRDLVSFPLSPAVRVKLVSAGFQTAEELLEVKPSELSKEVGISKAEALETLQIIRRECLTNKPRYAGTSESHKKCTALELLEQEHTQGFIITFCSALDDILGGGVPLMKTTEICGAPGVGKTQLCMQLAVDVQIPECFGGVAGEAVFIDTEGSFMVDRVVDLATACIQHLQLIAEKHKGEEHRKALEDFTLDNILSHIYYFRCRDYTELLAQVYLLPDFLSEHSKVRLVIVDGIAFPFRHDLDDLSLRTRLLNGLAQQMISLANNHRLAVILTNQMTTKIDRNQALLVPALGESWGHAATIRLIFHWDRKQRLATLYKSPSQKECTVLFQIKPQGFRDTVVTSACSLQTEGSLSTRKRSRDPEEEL
UniProt P06737: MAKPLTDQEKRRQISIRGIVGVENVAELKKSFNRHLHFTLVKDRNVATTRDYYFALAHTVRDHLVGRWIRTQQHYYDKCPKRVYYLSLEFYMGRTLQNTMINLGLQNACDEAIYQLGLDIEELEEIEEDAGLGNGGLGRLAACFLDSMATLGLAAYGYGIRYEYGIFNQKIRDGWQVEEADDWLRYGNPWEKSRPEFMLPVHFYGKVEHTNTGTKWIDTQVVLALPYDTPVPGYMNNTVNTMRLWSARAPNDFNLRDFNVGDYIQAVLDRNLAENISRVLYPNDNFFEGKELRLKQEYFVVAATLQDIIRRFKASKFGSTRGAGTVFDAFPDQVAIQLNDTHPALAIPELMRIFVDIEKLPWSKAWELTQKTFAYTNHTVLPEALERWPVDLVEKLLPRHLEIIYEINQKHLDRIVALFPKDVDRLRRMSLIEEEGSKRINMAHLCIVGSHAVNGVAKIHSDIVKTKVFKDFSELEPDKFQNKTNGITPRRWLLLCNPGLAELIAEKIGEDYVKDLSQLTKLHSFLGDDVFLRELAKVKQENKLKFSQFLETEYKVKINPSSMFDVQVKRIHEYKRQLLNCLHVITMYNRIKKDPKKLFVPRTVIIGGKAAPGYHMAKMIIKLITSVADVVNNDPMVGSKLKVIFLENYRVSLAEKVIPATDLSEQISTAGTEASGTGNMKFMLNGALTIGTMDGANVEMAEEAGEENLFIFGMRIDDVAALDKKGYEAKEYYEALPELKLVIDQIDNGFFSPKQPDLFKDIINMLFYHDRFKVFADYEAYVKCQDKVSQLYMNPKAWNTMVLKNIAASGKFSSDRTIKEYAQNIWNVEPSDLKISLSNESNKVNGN
UniProt P11234: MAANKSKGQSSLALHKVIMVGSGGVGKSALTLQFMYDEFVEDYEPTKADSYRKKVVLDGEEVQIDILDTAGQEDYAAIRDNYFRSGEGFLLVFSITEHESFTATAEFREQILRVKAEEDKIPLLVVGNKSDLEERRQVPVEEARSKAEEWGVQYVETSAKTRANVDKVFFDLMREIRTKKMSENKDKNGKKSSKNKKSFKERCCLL
UniProt Q9H0H5: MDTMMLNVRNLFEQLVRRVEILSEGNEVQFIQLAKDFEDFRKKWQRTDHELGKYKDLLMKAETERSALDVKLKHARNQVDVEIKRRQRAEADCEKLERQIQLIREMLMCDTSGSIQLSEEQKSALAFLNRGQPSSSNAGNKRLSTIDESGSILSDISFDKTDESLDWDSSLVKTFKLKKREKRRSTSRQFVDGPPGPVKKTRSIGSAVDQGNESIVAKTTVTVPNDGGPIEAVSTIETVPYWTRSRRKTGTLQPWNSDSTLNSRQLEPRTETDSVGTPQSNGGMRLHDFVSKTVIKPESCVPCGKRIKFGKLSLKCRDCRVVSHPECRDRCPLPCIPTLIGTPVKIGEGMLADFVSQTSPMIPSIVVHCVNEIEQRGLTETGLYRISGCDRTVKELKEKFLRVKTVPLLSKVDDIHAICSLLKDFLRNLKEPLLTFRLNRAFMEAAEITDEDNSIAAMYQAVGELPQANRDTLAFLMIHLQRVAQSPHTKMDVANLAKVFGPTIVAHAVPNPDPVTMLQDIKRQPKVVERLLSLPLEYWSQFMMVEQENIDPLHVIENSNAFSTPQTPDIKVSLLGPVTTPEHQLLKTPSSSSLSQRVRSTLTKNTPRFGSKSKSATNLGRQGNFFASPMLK
UniProt P61224: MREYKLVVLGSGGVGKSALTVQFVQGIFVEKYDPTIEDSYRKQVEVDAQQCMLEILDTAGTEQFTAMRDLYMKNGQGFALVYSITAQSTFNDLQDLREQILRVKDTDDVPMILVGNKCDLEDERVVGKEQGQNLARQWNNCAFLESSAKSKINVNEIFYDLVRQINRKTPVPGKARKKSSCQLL
UniProt Q9NP72: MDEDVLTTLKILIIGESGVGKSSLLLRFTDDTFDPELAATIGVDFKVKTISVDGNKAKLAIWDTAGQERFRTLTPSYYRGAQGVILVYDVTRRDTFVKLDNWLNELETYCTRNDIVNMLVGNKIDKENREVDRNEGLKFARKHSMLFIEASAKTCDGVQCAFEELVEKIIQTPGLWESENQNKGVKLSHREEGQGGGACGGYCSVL

[2] = compound: CC1=C(SC2=C1C(=N[C@H](C3=NN=C(N32)C)CC(=O)N)C4=CC=C(C=C4)Cl)C
Procedure, shortened: as §1

[3] = compound: CC1=C2C(=CC=C1)N=C(N(C2=O)C3=CC=CC=C3C)CN4C=NC5=C(N=CN=C54)N
Procedure, shortened: as §1

[4] = compound: Cc1sc2c(c1C)C(c1ccc(Cl)cc1)=N[C@@H](CC(=O)OC(C)(C)C)c1nnc(C)n1-2
Procedure, shortened: as §1

[5] = compound: c1ccc([C@@H]2C[C@H]2NC2CCNCC2)cc1
Procedure, shortened: as §1

Measured: log2 fold change

RAB3IL1 (UniProt E9PK89)
inactive: [1] -0.109 | [2] 0.057 | [3] 0.014 | [4] -0.189 | [5] -0.006

RAB3A (UniProt P20336)
inactive: [1] -0.028 | [2] -0.019 | [3] 0.075 | [4] 0.095 | [5] 0.013

RANGAP1 (UniProt P46060)
inactive: [1] -0.013 | [2] 0.004 | [3] -0.009 | [4] 0.019 | [5] 0.006

RAD51C (UniProt O43502)
inactive: [1] -0.028 | [2] 0.026 | [3] 0.078 | [4] -0.029 | [5] -0.004

PYGL (UniProt P06737)
inactive: [1] 0.006 | [2] 0.009 | [3] 0.008 | [4] -0.008 | [5] -0.011

RALB isoform 2 (UniProt P11234)
inactive: [1] -0.029 | [2] 0.002 | [3] 0.109 | [4] 0.013 | [5] -0.063

RACGAP1 (UniProt Q9H0H5)
inactive: [1] 0.051 | [2] -0.017 | [3] 0.066 | [4] 0.003 | [5] -0.015

RAP1B (UniProt P61224)
inactive: [1] 0.006 | [2] -0.023 | [3] 0.032 | [4] 0.055 | [5] 0.02

RAB18 isoform 2 (UniProt Q9NP72)
inactive: [1] 0.006 | [2] -0.009 | [3] 0.06 | [4] -0.004 | [5] -0.081

Reference: the supplement of paper PMC10849652
